In the supplement of paper PMC3047530 one finds growth inhibition data, which are given here for 60 compounds.

The list shows a part of the results. Repeats are few or missing, and single values can be far off.

The assay concerns Geomyces destructans. In words: growth inhibition relative to DMSO control; higher = stronger growth inhibition. To be noted: 10 µM; 15 °C; incubation time 10 days.
Turning to `Cc1cccc(Nc2ccncc2S(=O)(=O)NC(=O)NC(C)C)c1`, the growth inhibition is -15.1%.
In the case of `COc1cc(NS(=O)(=O)c2ccc(N)cc2)nc(OC)n1` it was -0.78%.
In the case of `O=C1N=C(O)NC1(c1ccccc1)c1ccccc1` it was -11.2%.
The result for `CC(=O)OCC(=O)[C@@]1(O)[C@H](OC(C)=O)C[C@H]2[C@@H]3CCC4=CC(=O)C=C[C@]4(C)[C@@]3(F)[C@@H](O)C[C@@]21C` reads -24.2%; that for `C/C=C(/C)C(=O)O[C@H]1Cc2c(ccc3ccc(=O)oc23)OC1(C)C`, 3.12%.
`NC(=O)N1c2ccccc2CC(=O)c2ccccc21`: the growth inhibition was -42.5%.
With `Cc1nnc(SCC2=C(C(=O)O)N3C(=O)[C@@H](NC(=O)Cn4cnnn4)[C@H]3SC2)s1`, the growth inhibition turned out to be 11.4%.
The result for `CN(C)c1nc(N)c(C(=O)N=C(N)N)nc1Cl` reads -6.64%.
The result for `O=c1[nH]c(=O)n([C@H]2C[C@H](O)[C@@H](CO)O2)cc1C(F)(F)F` reads -9.49%; that for `COc1ccc2c3c1O[C@H]1C[C@@H](O)C=C[C@@]31CCN(C)C2`, -31.6%.
The result for `CCCC(=O)O[C@]1(C(=O)CO)CC[C@H]2[C@@H]3CCC4=CC(=O)CC[C@]4(C)[C@H]3[C@@H](O)C[C@@]21C` reads -10.4%; that for `CC1(C)S[C@@H]2[C@H](NC(=O)COc3ccccc3)C(=O)N2[C@H]1C(=O)O`, -7.53%.
`C[C@]12CCC3c4ccc(OS(=O)(=O)O)cc4CCC3C1CC[C@H]2O` (stereo not given in full): the growth inhibition was -5.51%.
For `CC(C)NC(=N)NC(=N)Nc1ccc(Cl)cc1`, the growth inhibition is -34.1%.
In the case of `O=C1OC(=O)[C@H]2[C@@H]1[C@@H]1CC[C@H]2O1` it was -26%; in that of `NCCCCN`, -7.99%; in that of `CC1=CC2C(CC1=O)C(C)=CCC2C(C)C` (stereo not given), -6.82%.
Turning to `CC(C)C1COc2cc3oc(=O)ccc3cc2O1` (stereo not given), the growth inhibition was -2.34%.
In the case of `CC(C)[C@@H]1CC[C@@H](C)CC1=O` it was -4.4%.
The result for `CC(=O)/C=C\[C@@H]1[C@@]2(C)CCCC(C)(C)C2CC[C@@]1(C)O` (stereo not given in full) reads -3.64%; that for `CCCCCCCCNC(C)C(O)c1ccc(SC(C)C)cc1` (stereo not given), -8.3%; that for `C[C@H]1O[C@@H](O[C@H]2[C@@H](O)C[C@H](O[C@H]3[C@@H](O)C[C@H](O[C@H]4CC[C@@]5(C)[C@H](CC[C@@H]6[C@@H]5CC[C@]5(C)[C@@H](C7=CC(=O)OC7)CC[C@]65O)C4)O[C@@H]3C)O[C@@H]2C)C[C@H](O)[C@@H]1O`, -7.18%.
The result for `O=C(O)c1cc([N+](=O)[O-])ccc1NCCCc1ccccc1` reads -1.58%; that for `S=c1[nH]cnc2nc[nH]c12`, 3.6%.
With `COc1cc2c(cc1OC)[C@@H]1C(=O)c3ccc4c(c3O[C@@H]1CO2)C=CC(C)(C)O4`, the growth inhibition is -2.83%.
In the case of `CC(=O)O[C@]1(C(C)=O)CC[C@H]2[C@@H]3C=C(C)C4=CC(=O)CC[C@]4(C)[C@H]3CC[C@@]21C` it was -37%.
In the case of `Cc1c(C)c2c(c(C)c1O)CCC(C)(CCCC(C)CCCC(C)CCCC(C)C)O2` (stereo not drawn) [alpha-TOCHOPHEROL] it was -30%.
In the case of `O=C(O)/C=C(\CC(=O)O)C(=O)O`, the growth inhibition was -5.57%.
`O=c1oc2ccccc2cc1O`: the growth inhibition was found to be 4.64%.
The result for `C=C1CCC(=O)C(C)CCC2C1CC2(C)C` (stereo not given) reads -6.67%; that for `OCC(O)C(O)C(O)CO` (stereo not given), -6.51%; that for `CC(=O)OC1CC(OC(C)=O)C2(C)C(CC(OC(C)=O)C3(C)C2CCC2(C)C(c4ccoc4)OC(=O)C4OC423)C1(C)C` (stereo not given), 0.256%.
As for `COc1cc(O)c(C(=O)c2ccccc2)cc1O`, the growth inhibition stood at 13%.
In the case of `CC1=C(C(=O)O)N2C(=O)[C@@H](NC(=O)[C@H](N)c3ccccc3)[C@H]2SC1` it was -5.04%; in that of `CCC(C)C(=O)OC1[C@@H]2CC3=C4CC(=O)O[C@@H](c5ccoc5)[C@]4(C)CCC3[C@@](C)(C2=O)[C@@H](CC(=O)OC)C1(C)C` (stereo not given in full), -1.59%; in that of `Cc1cc(O)cc(O)c1C(=O)O`, 2.91%.
In the case of `CC(C)(C)NCC(O)COc1cccc2c1CC(O)C(O)C2` (stereo not given) it was -7.83%; in that of `Oc1ccc2c(c1)O[C@H](c1ccc(O)c(O)c1)[C@@H](O)C2`, 5.43%.
In the case of `COC(=O)C[C@H]1C(C)(C)C(=O)[C@@H]2CC3C4=CC(=O)O[C@@H](c5ccoc5)[C@]4(C)CC[C@@H]3[C@@]1(C)C2=O` (stereo not given in full) it was -8.7%; in that of `CC(C)=CC1C(C(=O)O)C1(C)C` (stereo not given), 3.4%.
As to `COc1ccc2cc3[n+](cc2c1OC)CCc1cc2c(cc1-3)OCO2`, the growth inhibition is -13.8%.
The result for `COc1ccc2c(c1)CC[C@@H]1[C@@H]2CC[C@]2(C)[C@@H](O)[C@H](O)C[C@@H]12` reads -3.82%; that for `COc1ccc2c(c1)OC[C@@H](Cc1ccc(OC)c(OC)c1)[C@@H]2O`, -25.3%; that for `Cc1c2oc3c(C)ccc(C(=O)N[C@@H]4C(=O)N[C@H](C(C)C)C(=O)N5CCC[C@H]5C(=O)N(C)CC(=O)N(C)[C@@H](C(C)C)C(=O)O[C@@H]4C)c3nc-2c(C(=O)N[C@@H]2C(=O)N[C@H](C(C)C)C(=O)N3CCC[C@H]3C(=O)N(C)CC(=O)N(C)[C@@H](C(C)C)C(=O)O[C@@H]2C)c(N)c1=O`, -27.8%.
For the compound `COc1ccc2c(c1)c(CC(=O)OCC(=O)O)c(C)n2C(=O)c1ccc(Cl)cc1`, the growth inhibition is -17.5%.
In the case of `O=C1C(O)=C(O)C(=O)C(O)=C1O`, the growth inhibition was -9.95%.
Consider `CC(=O)/N=c1/sc(S(N)(=O)=O)nn1C`, for which the growth inhibition is -2.37%.
Consider `CC1=CC(=O)c2ccccc2C1=O`, for which the growth inhibition is -23.1%.
Consider `C#C[C@]1(OC(C)=O)CC[C@H]2[C@@H]3CCC4=CC(=O)CC[C@@H]4[C@H]3CC[C@@]21C`, for which the growth inhibition is -12.6%.
For the compound `COc1ccccc1-c1cc(=O)c2cccc(OC)c2o1`, the growth inhibition amounted to 17.6%.
In the case of `CCCCC1C(=O)N(c2ccccc2)N(c2ccccc2)C1=O` it was -9.69%; in that of `O=C(O)/C=C/C=C/c1ccccc1`, 64.3%; in that of `CCCCC[C@@H](O)[C@H]1C(=O)O[C@H](C)[C@@H](O)/C=C/C=C/C=C/C=C/C=C(\C)[C@@H](O)C[C@H](O)C[C@H](O)C[C@H](O)C[C@H](O)C[C@H](O)C[C@@H]1O`, -31.6%.
For `OC[C@H]1O[C@@H](O[C@@H]2OC=C[C@H]3[C@H](O)[C@@H]4O[C@]4(CO)[C@@H]23)[C@H](O)[C@@H](O)[C@@H]1O`, the growth inhibition is -2.83%.
With `O=C(CCCCC(=O)Nc1c(I)cc(I)c(C(=O)O)c1I)Nc1c(I)cc(I)c(C(=O)O)c1I`, the growth inhibition was -16.9%.
For the compound `CCC(=O)c1ccc2c(c1)N(CC(C)N(C)C)c1ccccc1S2` (stereo not given), the growth inhibition is -27.6%.
The result for `Cc1ccc(C(=O)C(C)CN2CCCCC2)cc1` (stereo not given) reads -6.06%; that for `COc1cc(C(C)=O)cc(OC)c1O`, -8.81%; that for `CC(C)=CCC/C(C)=C\CO`, -33.8%.
With `CC(Cc1ccc(O)c(O)c1)C(C)Cc1ccc(O)c(O)c1` (stereo not given), the growth inhibition turned out to be 0.774%.
